Test results: paper PMC7199855, “GRAF2, WDR44, and MICAL1 mediate Rab8/10/11–dependent export of E-cadherin, MMP14, and CFTR ΔF508” (The Journal of Cell Biology, 2020)
These are yes or no findings as the source states them, for the method shown. In cells and extracts the contact can be indirect. Some binding calls cover weakened binding; strength is not graded here. Where a sequence is shown, tags or fusion partners need not be part of it.

Columns and labels:
[1] = target: T1, myc-MICAL1 (human) (UniProt Q8TDZ2); assay: co-IP; transfected 293T, IP with α-myc antibody and Protein G Sepharose; 20 mM Hepes pH 7.4, 150 mM NaCl, 2 mM EDTA, 1% IGEPAL CA-630; Western blot
T1 sequence: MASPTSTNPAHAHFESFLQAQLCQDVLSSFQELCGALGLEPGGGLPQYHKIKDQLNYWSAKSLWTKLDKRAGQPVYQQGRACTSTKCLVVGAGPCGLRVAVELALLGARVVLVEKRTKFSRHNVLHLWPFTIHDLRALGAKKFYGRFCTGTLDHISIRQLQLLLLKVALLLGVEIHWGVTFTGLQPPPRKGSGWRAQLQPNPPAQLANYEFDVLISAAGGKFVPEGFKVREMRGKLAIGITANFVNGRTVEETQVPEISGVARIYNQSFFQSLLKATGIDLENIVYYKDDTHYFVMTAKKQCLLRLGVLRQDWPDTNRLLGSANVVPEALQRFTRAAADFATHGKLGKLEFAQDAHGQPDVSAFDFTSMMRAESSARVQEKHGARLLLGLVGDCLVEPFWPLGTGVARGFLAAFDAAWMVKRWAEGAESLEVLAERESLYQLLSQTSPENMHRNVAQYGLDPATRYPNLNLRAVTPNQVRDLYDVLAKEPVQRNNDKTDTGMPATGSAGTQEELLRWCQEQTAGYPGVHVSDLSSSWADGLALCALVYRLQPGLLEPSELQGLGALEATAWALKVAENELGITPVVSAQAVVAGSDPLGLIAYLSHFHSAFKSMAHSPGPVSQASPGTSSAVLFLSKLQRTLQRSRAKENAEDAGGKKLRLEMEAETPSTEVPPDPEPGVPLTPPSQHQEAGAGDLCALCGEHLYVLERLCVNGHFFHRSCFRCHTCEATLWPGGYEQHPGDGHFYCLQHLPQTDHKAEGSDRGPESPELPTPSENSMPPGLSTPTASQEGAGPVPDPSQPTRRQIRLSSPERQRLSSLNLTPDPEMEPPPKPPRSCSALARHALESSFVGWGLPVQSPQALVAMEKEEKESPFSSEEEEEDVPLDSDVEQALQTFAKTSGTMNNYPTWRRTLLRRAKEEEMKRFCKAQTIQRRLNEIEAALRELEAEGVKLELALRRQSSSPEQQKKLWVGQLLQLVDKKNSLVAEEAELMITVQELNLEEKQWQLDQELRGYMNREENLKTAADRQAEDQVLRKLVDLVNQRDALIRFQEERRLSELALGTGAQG

[2] = target: T2, myc–MICAL1 G3W (human) (UniProt Q8TDZ2); assay: as above
T2 sequence: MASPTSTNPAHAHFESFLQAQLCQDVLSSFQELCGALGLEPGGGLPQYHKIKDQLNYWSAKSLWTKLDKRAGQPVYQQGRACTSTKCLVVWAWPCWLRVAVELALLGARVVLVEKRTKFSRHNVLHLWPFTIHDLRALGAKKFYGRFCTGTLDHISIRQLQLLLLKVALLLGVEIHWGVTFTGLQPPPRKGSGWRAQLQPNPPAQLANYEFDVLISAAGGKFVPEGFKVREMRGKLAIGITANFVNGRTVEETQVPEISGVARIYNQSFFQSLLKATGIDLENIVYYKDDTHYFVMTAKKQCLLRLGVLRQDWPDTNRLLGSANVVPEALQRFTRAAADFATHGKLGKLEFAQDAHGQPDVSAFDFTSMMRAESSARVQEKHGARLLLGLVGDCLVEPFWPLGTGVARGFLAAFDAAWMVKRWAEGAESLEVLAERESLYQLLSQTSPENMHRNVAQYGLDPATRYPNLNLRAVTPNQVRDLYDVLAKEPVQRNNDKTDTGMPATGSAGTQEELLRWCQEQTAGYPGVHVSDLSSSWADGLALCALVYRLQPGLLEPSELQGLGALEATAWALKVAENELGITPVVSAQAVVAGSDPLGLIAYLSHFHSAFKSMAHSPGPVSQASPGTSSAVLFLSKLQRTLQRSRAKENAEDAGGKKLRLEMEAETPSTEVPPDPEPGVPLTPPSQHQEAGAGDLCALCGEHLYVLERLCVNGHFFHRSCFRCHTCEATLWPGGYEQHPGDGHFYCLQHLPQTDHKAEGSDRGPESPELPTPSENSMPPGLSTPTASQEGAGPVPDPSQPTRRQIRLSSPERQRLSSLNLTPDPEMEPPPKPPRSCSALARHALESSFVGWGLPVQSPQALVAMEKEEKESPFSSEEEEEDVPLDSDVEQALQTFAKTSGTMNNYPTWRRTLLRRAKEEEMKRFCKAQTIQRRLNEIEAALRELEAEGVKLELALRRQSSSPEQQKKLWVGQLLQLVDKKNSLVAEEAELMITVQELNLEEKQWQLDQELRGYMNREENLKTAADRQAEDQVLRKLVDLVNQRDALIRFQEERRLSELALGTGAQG

[3] = target: T3, myc-MICAL1^tail (human) (UniProt Q8TDZ2); assay: co-IP; transfected 293T, IP with α-myc–coated magnetic beads; 20 mM Hepes pH 7.4, 150 mM NaCl, 2 mM EDTA, 1% IGEPAL CA-630; Western blot
T3 sequence: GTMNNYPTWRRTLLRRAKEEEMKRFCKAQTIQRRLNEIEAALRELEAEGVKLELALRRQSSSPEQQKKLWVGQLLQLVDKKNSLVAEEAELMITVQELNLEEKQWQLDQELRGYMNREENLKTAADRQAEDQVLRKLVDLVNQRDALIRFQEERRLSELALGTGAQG

binding [1]: binds
binding [2]: binds
binding [3]: no binding
B1: GRAF1b-GFP (protein, UniProt Q9UNA1-2 1-759)
chain: MGLPALEFSDCCLDSPHFRETLKSHEAELDKTNKFIKELIKDGKSLISALKNLSSAKRKFADSLNEFKFQCIGDAETDDEMCIARSLQEFATVLRNLEDERIRMIENASEVLITPLEKFRKEQIGAAKEAKKKYDKETEKYCGILEKHLNLSSKKKESQLQEADSQVDLVRQHFYEVSLEYVFKVQEVQERKMFEFVEPLLAFLQGLFTFYHHGYELAKDFGDFKTQLTISIQNTRNRFEGTRSEVESLMKKMKENPLEHKTISPYTMEGYLYVQEKRHFGTSWVKHYCTYQRDSKQITMVPFDQKSGGKGGEDESVILKSCTRRKTDSIEKRFCFDVEAVDRPGVITMQALSEEDRRLWMEAMDGREPVYNSNKDSQSEGTAQLDSIGFSIIRKCIHAVETRGINEQGLYRIVGVNSRVQKLLSVLMDPKTASETETDICAEWEIKTITSALKTYLRMLPGPLMMYQFQRSFIKAAKLENQESRVSEIHSLVHRLPEKNRQMLQLLMNHLANVANNHKQNLMTVANLGVVFGPTLLRPQEETVAAIMDIKFQNIVIEILIENHEKIFNTVPDMPLTNAQLHLSRKKSSDSKPPSCSERPLTLFHTVQSTEKQEQRNSIINSSLESVSSNPNSILNSSSSLQPNMNSSDPDLAVVKPTRPNSLPPNPSPTSPLSPSWPMFSAPSSPMPTSSTSSDSSPVSTPFRKAKALYACKAEHDSELSFTAGTVFDNVHPSQEPGWLEGTLNGKTGLIPENYVEFL
